We go through 1 molecule from publication PMC5617202, “Structural and functional insights into the reaction specificity of catalase-related hydroperoxide lyase: A shift from lyase activity to allene oxide synthase by site-directed mutagenesis” (PLoS ONE, 2017).

No constants are given. Whether binding was seen depends on the method and setting. Sequences can lack the tags named with a protein.

This experiment deals with Plexaura homomalla allene oxide synthase-lipoxygenase fusion protein (cAOS-LOX) (Plexaura homomalla) (UniProt O16025). The experiment is described as follows: SEC; Superdex 200 Increase 10/300 GL, 50 mM Tris pH 8.0, 150 mM NaCl, 0.7 mL/min, read at 406 and 280 nm; 10-15 ug of a mutant or about 50 ug of wt cHPL; retention times compared with mass standards; both purified.

B1: Plexaura homomalla allene oxide synthase-lipoxygenase fusion protein (cAOS-LOX) (protein, UniProt O16025 1-1066)
chain: MTWKNFGFEIFGEKYGQEELEKRIKDEHTPPPDSPVFGGLKLKLKKEKFKTLFTLGTTLKGFRRATHTVGTGGIGEITIVNDPKFPEHEFFTAGRTFPARLRHANLKYPDDAGADARSFSIKFADSDSDGPLDIVMNTGEANIFWNSPSLEDFVPVEEGDAAEEYVYKNPYYYYNLVEALRRAPDTFAHLYYYSQVTMPFKAKDGKVRYCRYRALPGDVDIKEEDESGRLTEEEQRKIWIFSRHENEKRPDDYLRKEYVERLQKGPVNYRLQIQIHEASPDDTATIFHAGILWDKETHPWFDLAKVSIKTPLSPDVLEKTAFNIANQPASLGLLEAKSPEDYNSIGELRVAVYTWVQHLRKLKIGSLVPAGQNAIYNVEVETGDREHAGTDATITIRITGAKGRTDYLKLDKWFHNDFEAGSKEQYTVQGFDVGDIQLIELHSDGGGYWSGDPDWFVNRVIIISSTQDRVYSFPCFRWVIKDMVLFPGEATLPFNEVPAIVSEQRQKELEQRKLTYQWDYVSDDMPGNIKAKTHDDLPRDVQFTDEKSRSYQESRKAALVNLGIGSLFTMFENWDSYDDYHILYRNWILGGTPNMADRWHEDRWFGYQFLNGANPVILTRCDALPSNFPVTNEHVNASLDRGKNLDEEIKDGHIYIVDFKVLVGAKSYGGPVLEDIGYKVPDHLKHDEADIRYCAAPLALFYVNKLGHLMPIAIQINQEPGPENPIWTPHEENEHDWMMAKFWLGVAESNFHQLNTHLLRTHLTTESFALSTWRNLASAHPVFKLLQPHIYGVLAIDTIGRKELIGSGGIVDQSLSLGGGGHVTFMEKCFKEVNLQDYHLPNALKKRGVDDPSKLPGFYYRDDGLALWEAIETFIGEIIAIFYKNDDDVKRDNEIQSWIYDVHKNGWRVNPGHQDHGVPASFESREQLKEVLTSLVFTFSCQHAAVNFSQKDHYGFTPNAPAVLRHPPPKKKGEATLQSILSTLPSKSQAAKAIATVYILTKFSEDERYLGNYSATAWEDKDALDAINRFQDKLEDISKKIKQRNENLEVPYIYLLPERIPNGTAI
On to B1, for which the binding entry is reported as “no binding”.
